# PubChem BioAssay AID504834 (National Center for Advancing Translational Sciences (NCATS), 2011)
# Out of some 320,000 compounds screened, about 22,000 (6.9%) were called active. This list was built around the results that the source calls inconclusive (neither active nor inactive); the mix of calls is not that of the screen. Calls follow the shape of the dose curve; as a rule, active = well fitted inhibition curve with a large enough effect; inconclusive = small, poorly fitted or top-dose-only effect, or another doubt; inactive = no such curve, though single readings can be large or run the other way. Potencies beside an inconclusive call are fits to weak or partial responses and may not hold up.
# Assay: Primary qHTS for delayed death inhibitors of the malarial parasite plastid, 96 hour incubation
# Conditions: P. falciparum luciferase reporter growth; series mostly up to 28.7 µM
# Outline: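 Luminescence readout: decreased luciferase signal marks inhibited growth of reporter-expressing P. falciparum in infected red cells (2% hematocrit, 0.05% parasitemia final), exposed to compound two generations (96 h, 37 C, 5% CO2).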
# Potency is read from the fitted curve at half-maximal effect.
row,SMILES,Potency
1,CC(C)c1ccc(C(=O)Nc2ccc(CN3CCOCC3)cc2)cc1,"inconclusive: 4.15 µM [inhibitor, partial curve]"
2,CC1C(=O)N2CCCc3cc(S(=O)(=O)N4CCC(C(N)=O)CC4)cc1c32 (centres undefined),"inconclusive: 18.5 µM [inhibitor, single point]"
3,Cc1ccccc1OCc1nc(-c2ccc(NC(=O)c3cccs3)cc2)no1,"inconclusive: 13.1 µM [inhibitor, single point]"
4,O=C(NCc1ccccc1)NS(=O)(=O)c1ccccc1Cl,"inconclusive: 18.5 µM [inhibitor, single point]"
5,O=C(COc1ccc([N+](=O)[O-])cc1)NCCc1nc2ccccc2[nH]1,inactive
6,CCN(CC)S(=O)(=O)c1ccc(C)c(NC(=O)Cn2cnc3cc([N+](=O)[O-])ccc3c2=O)c1,"inconclusive: 16.5 µM [inhibitor, single point]"
7,CN(C)c1ccc(/C=N/NC(=O)c2cnc3ccccc3c2)cc1,"inconclusive: 6.57 µM [inhibitor, partial curve]"
8,COc1cccc(-c2ncc3ccccn23)c1,inactive
9,C[C@@H]1CC(=O)[C@H]2CC(CO)=CCC[C@@H]2[C@@]1(C)CC/C(=C/CO)CO,"inconclusive: 6.57 µM [inhibitor, partial curve, poor fit]"
10,Cc1cccc(C)c1NC(=O)Cn1nnc(C(=O)Nc2ccc(F)cc2F)c1N,inactive
11,COc1ccc(/C(C)=N/NS(=O)(=O)c2cc(C)ccc2C)c(OC)c1,"inconclusive: 0.0026 µM [inhibitor, full curve, poor fit]"
12,Fc1ccc(OCc2nc3ccccc3s2)cc1,"inconclusive: 20.8 µM [inhibitor, partial curve, poor fit]"
13,COc1ccc(CCn2nnc(-c3ccc(NC(C)=O)c(Cl)c3)n2)cc1,"inconclusive: 18.5 µM [inhibitor, single point]"
14,COc1ccc(OC)c(-c2nc(CN3CCN(C(=O)c4ccco4)CC3)c(C)o2)c1,"inconclusive: 20.8 µM [inhibitor, partial curve, poor fit]"
15,c1ccc(-c2csc(NNC3=NCCCCC3)n2)cc1,"inconclusive: 18.5 µM [inhibitor, single point]"
16,COc1cc(-c2cc(C(=O)N(C)Cc3ccccc3)c3ccccc3n2)cc(OC)c1OC,"inconclusive: 1.85 µM [inhibitor, full curve]"
17,CC1(C)C(=O)Nc2ccccc2N1C(=O)CN1C(=O)NC(CCc2ccccc2)C1=O (centres undefined),"inconclusive: 18.5 µM [inhibitor, single point]"
18,CS(=O)(=O)c1ccc(Cl)c(NC(=O)CSc2nc3ccccc3c(=O)n2CCCN2CCOCC2)c1,active: 7.38 µM
19,CCOc1ccccc1NC(=O)CN(c1ccc(Cl)cc1)S(C)(=O)=O,"inconclusive: 18.5 µM [inhibitor, single point]"
20,O=C(c1ccco1)N1CCN(CC(=O)N2c3ccccc3CCc3ccccc32)CC1,active: 10.4 µM
21,CC1Cc2ccccc2N1C(=O)COC(=O)CSc1ccc(F)cc1 (centres undefined),inactive
22,Cc1cc(OCC(=O)Nc2cccc(S(=O)(=O)N3CCCCC3)c2)ccc1Cl,"inconclusive: 18.5 µM [inhibitor, single point]"

row,SMILES,Potency
1,Cc1ccc(OC(=O)CN2C(=O)c3ccccc3C2=O)cc1C,"inconclusive: 18.5 µM [inhibitor, single point]"
2,Cc1cc(C)nc(SCc2ccc3nonc3c2)n1,"inconclusive: 11.7 µM [inhibitor, single point]"
3,C#CCOCCOCCOCCNc1nc(N2CCN(C(=O)CCCCCCCCCCNC(=O)Cn3cc(CCCCCN)nn3)CC2)nc(N2CCN(C(=O)CCCCCCCCCCNC(=O)Cn3cc(C[C@@H](C)O)nn3)CC2)n1,active: 0.294 µM
4,COc1ccc(C2/C=C\CN(CC(C)(C)C)CC(=O)N2Cc2ccc(F)cc2)cc1 (centres undefined),"inconclusive: 18.5 µM [inhibitor, single point]"
5,CC(=O)n1cc([C@H]2C=C(C(=O)N3CCOCC3)O[C@@H](OCc3ccc(CO)cc3)C2)c2ccccc21,"inconclusive: 14.7 µM [inhibitor, partial curve, poor fit]"
6,O=C(Nc1cccnc1)c1ccc2c(c1)OCO2,"inconclusive: 7.38 µM [inhibitor, partial curve, poor fit]"
7,COc1ccc(N2CCN(C(=O)Cn3nnc(-c4cccs4)n3)CC2)cc1,"inconclusive: 18.5 µM [inhibitor, single point]"
8,OC(CNCC(c1ccc(Cl)cc1Cl)c1c[nH]c2ccccc12)c1ccccc1 (centres undefined),"inconclusive: 1.65 µM [inhibitor, full curve]"
9,Cc1cccc(N2CCN(C(=O)CCCOc3ccccc3)CC2)c1C,inactive
10,COc1cc(-c2nnc(NC(=O)CS(=O)(=O)c3ccc(C)cc3)o2)cc(OC)c1OC,inactive
11,CC(C)N(CCCNC(=O)Cn1c(=O)c2cccn2c2ccccc21)Cc1ccccc1,"inconclusive: 18.5 µM [inhibitor, single point]"
12,COc1ccc(N=C2SC(C(=O)O)CC(=O)N2Cc2ccc(OC)c(OC)c2)cc1 (centres undefined),"inconclusive: 18.5 µM [inhibitor, single point]"
13,COc1cc(Br)c(Br)cc1N,"inconclusive: 0.0029 µM [inhibitor, full curve, poor fit]"
14,Cc1ccc(S(=O)(=O)NCC(=O)Nc2cccc([N+](=O)[O-])c2)cc1,"inconclusive: 10.4 µM [inhibitor, single point]"
15,CCOc1ccc(S(=O)(=O)Nc2ccc(C(=O)NCC(c3ccco3)N(C)C)cc2)cc1 (centres undefined),"inconclusive: 11.7 µM [inhibitor, single point]"
16,CN(C)c1ccc(N2C(=NC(=O)CC3CCCCC3)SC3CS(=O)(=O)CC32)cc1 (centres undefined),"inconclusive: 18.5 µM [inhibitor, single point]"
17,CC(Sc1nnc(Nc2ccccc2F)s1)C(=O)NC1CC1 (centres undefined),"inconclusive: 10.4 µM [inhibitor, single point]"
18,Cc1ccsc1C(=O)Nc1cccc(S(=O)(=O)N(C)C)c1,"inconclusive: 8.28 µM [inhibitor, partial curve, poor fit]"
19,O=C(C1=C[C@H](c2ccc(Br)cc2)C[C@H](OCCCCO)O1)N1CCN(Cc2ccc3c(c2)OCO3)CC1,active: 4.15 µM
20,CCOC(=O)N1CCC(NC(=O)c2cc3cc4cc(OC)ccc4nc3o2)CC1,active: 7.38 µM
21,O=C(Nc1ccccc1N1CCOCC1)c1ccc(Cl)c(S(=O)(=O)NCc2ccco2)c1,"inconclusive: 14.7 µM [inhibitor, partial curve, poor fit]"
22,CCOc1ccccc1NC(=O)N1CCC(n2nnc3cc(C)ccc32)CC1,"inconclusive: 0.104 µM [inhibitor, partial curve, poor fit]"

# Ordered by molecular weight (high to low): some entries from above.
row,SMILES,Potency
15,CCOc1ccc(S(=O)(=O)Nc2ccc(C(=O)NCC(c3ccco3)N(C)C)cc2)cc1 (centres undefined),"inconclusive: 11.7 µM [inhibitor, single point]"
16,COc1cc(-c2cc(C(=O)N(C)Cc3ccccc3)c3ccccc3n2)cc(OC)c1OC,"inconclusive: 1.85 µM [inhibitor, full curve]"
1,Cc1ccc(OC(=O)CN2C(=O)c3ccccc3C2=O)cc1C,"inconclusive: 18.5 µM [inhibitor, single point]"

# Reprinted at random: 2 compounds from above, in no set order.
row,SMILES,Potency
19,O=C(C1=C[C@H](c2ccc(Br)cc2)C[C@H](OCCCCO)O1)N1CCN(Cc2ccc3c(c2)OCO3)CC1,active: 4.15 µM
22,CCOc1ccccc1NC(=O)N1CCC(n2nnc3cc(C)ccc32)CC1,"inconclusive: 0.104 µM [inhibitor, partial curve, poor fit]"

# Remaining list, next part

row,SMILES,Potency
1,Fc1ccc(Oc2ncccn2)c(F)c1,inactive
2,COCCNC(=S)NN=C1CCC(c2ccccc2)CC1 (centres undefined),"inconclusive: 10.4 µM [inhibitor, partial curve, poor fit]"
3,C/C(CC(=O)Nc1ccccn1)=N\NC(=O)C(=O)Nc1cccc(Cl)c1C,"inconclusive: 0.0033 µM [inhibitor, full curve, poor fit]"
4,O=C(Cc1cn2ccsc2n1)Nc1nc2c(s1)CN(Cc1ccccc1)CC2,"inconclusive: 13.1 µM [inhibitor, partial curve, poor fit]"
5,COc1ccc(OCC(=O)NNc2c3ccccc3nc3ccccc23)cc1,active: 2.08 µM
6,CC1CCCC(C)N1C(=O)COc1ccc([N+](=O)[O-])cc1Cl (centres undefined),inactive
7,Cc1ccc(S(=O)(=O)N(CCC(=O)NCc2ccccc2F)c2ccccc2)cc1,"inconclusive: 11.7 µM [inhibitor, single point]"
8,COC(=O)C(C)NC(=O)c1cn(-c2ccccc2OC)c(=O)c2ccccc12 (centres undefined),inactive
9,O=C1CN(C(=O)COc2ccccc2Cl)c2ccccc2N1,"inconclusive: 9.28 µM [inhibitor, single point]"
10,CCOc1cc(/C=C/C(=O)N(CC)CC(=O)NCc2cccs2)cc(Cl)c1OC,inactive
11,Cn1c(C(=O)N2CCN(c3ccc(F)cc3)CC2)cc2ccccc21,"inconclusive: 18.5 µM [inhibitor, partial curve, poor fit]"
12,Cc1cccc(NS(=O)(=O)c2ccc(C3CCCCC3)cc2)c1,"inconclusive: 3.7 µM [inhibitor, partial curve]"
13,CC1CCCCN1C(=O)CCc1nnc(Cc2c[nH]c3ccccc23)o1 (centres undefined),"inconclusive: 20.8 µM [inhibitor, single point]"
14,Cc1nc2ccccc2c(=O)n1/N=C/c1cn[nH]c1-c1ccccc1,"inconclusive: 0.415 µM [inhibitor, full curve, poor fit]"
15,CCC(=O)NC(=S)NNC(=O)c1ccc([N+](=O)[O-])cc1,active: 13.1 µM
16,CCC(C)(C)c1ccc(CC(C)CN2C[C@@H](C)O[C@@H](C)C2)cc1 (some centres undefined),"inconclusive: 9.53 µM [inhibitor, single point]"
17,FC(F)(F)c1cccc(CNc2ncccc2-c2nc3cc(Cl)ccc3o2)c1,"inconclusive: 2.33 µM [inhibitor, partial curve, poor fit]"
18,Cc1ccc(-c2nn(-c3ccccc3)cc2C2CC(c3cccs3)=NN2C(=O)CCC(=O)O)cc1 (centres undefined),"inconclusive: 7.38 µM [inhibitor, partial curve, poor fit]"
19,Cc1ccc(S(=O)(=O)N2CCC(C(=O)OCC(=O)N(C)C3CCCCC3)CC2)cc1C,inactive
20,COc1ccc(Cl)cc1NC(=O)CN1CCN(S(=O)(=O)N2CCCCC2)CC1,"inconclusive: 14.7 µM [inhibitor, single point]"
